# Assay results: the supplement of paper PMC12067093, “Discovery and optimisation of a covalent ligand for TRIM25 and its application to targeted protein ubiquitination” (Chemical Science, 2025)
# Chains of the proteins cited; added tags and fusions are not shown. Lines headed by an entry give the natural chain unless they say otherwise; changes in a name come on top.
# UniProt P07741: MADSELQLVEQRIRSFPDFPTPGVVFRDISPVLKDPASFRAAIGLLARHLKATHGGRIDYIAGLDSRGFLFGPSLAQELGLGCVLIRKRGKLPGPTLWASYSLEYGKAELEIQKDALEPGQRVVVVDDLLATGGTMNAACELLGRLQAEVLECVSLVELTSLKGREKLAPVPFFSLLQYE
# UniProt Q92974: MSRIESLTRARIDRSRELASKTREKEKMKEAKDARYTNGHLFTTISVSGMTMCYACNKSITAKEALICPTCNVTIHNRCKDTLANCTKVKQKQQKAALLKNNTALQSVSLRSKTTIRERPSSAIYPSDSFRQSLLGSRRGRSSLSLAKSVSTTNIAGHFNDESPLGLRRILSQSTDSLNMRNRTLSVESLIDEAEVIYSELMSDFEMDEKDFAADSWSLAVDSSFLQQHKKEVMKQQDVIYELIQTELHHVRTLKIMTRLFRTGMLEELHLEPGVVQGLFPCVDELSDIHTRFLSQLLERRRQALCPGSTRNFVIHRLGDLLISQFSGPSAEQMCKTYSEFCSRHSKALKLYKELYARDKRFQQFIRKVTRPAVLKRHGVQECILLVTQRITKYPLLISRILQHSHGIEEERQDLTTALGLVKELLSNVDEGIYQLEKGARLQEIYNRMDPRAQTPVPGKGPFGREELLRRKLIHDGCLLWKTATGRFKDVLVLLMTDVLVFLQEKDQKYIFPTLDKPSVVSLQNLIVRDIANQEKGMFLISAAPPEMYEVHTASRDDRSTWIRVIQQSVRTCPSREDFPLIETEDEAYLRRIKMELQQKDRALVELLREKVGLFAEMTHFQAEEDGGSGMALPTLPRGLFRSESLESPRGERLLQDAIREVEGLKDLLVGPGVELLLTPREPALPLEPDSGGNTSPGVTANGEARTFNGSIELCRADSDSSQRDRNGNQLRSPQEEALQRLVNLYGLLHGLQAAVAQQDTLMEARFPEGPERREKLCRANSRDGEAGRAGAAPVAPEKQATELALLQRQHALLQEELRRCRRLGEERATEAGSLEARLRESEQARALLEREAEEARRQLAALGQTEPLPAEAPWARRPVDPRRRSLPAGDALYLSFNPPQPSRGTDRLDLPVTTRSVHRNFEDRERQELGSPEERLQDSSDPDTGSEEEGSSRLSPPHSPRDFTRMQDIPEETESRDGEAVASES
# UniProt Q96P48: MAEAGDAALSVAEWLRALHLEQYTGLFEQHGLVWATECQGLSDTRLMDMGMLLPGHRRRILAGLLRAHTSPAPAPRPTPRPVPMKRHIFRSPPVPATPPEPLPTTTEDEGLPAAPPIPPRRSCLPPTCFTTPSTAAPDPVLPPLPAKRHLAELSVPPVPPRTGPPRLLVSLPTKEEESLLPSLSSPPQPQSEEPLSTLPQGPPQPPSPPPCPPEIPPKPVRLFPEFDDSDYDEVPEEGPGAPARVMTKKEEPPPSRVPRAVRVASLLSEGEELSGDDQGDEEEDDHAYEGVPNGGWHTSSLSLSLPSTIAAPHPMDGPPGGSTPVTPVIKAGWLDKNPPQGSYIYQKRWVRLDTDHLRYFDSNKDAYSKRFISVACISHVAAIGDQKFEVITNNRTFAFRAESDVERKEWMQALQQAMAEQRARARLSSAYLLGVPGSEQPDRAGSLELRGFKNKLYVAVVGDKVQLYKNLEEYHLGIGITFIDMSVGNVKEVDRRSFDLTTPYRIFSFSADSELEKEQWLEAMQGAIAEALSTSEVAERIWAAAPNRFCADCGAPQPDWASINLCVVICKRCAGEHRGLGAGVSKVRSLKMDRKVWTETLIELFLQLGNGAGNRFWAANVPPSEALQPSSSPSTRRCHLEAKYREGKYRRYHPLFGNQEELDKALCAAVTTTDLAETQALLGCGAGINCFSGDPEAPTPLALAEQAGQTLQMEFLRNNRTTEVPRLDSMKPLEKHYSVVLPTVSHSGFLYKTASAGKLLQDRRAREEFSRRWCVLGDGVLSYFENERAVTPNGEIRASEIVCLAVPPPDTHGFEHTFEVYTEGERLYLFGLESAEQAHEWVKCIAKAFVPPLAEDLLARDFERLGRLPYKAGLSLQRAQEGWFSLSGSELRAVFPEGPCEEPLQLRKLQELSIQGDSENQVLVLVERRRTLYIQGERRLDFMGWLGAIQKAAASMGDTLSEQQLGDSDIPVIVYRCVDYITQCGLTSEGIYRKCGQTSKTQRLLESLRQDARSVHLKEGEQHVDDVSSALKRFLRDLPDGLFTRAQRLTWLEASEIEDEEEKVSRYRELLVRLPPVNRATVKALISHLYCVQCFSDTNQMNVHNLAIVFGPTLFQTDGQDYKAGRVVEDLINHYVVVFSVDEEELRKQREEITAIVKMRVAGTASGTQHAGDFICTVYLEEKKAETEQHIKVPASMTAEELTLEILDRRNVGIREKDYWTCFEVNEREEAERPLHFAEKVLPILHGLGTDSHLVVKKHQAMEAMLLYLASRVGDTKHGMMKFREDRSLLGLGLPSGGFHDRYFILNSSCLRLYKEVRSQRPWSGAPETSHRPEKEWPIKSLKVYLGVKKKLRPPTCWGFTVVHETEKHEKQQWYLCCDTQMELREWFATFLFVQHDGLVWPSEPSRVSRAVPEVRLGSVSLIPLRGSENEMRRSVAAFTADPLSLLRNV
# UniProt Q92619: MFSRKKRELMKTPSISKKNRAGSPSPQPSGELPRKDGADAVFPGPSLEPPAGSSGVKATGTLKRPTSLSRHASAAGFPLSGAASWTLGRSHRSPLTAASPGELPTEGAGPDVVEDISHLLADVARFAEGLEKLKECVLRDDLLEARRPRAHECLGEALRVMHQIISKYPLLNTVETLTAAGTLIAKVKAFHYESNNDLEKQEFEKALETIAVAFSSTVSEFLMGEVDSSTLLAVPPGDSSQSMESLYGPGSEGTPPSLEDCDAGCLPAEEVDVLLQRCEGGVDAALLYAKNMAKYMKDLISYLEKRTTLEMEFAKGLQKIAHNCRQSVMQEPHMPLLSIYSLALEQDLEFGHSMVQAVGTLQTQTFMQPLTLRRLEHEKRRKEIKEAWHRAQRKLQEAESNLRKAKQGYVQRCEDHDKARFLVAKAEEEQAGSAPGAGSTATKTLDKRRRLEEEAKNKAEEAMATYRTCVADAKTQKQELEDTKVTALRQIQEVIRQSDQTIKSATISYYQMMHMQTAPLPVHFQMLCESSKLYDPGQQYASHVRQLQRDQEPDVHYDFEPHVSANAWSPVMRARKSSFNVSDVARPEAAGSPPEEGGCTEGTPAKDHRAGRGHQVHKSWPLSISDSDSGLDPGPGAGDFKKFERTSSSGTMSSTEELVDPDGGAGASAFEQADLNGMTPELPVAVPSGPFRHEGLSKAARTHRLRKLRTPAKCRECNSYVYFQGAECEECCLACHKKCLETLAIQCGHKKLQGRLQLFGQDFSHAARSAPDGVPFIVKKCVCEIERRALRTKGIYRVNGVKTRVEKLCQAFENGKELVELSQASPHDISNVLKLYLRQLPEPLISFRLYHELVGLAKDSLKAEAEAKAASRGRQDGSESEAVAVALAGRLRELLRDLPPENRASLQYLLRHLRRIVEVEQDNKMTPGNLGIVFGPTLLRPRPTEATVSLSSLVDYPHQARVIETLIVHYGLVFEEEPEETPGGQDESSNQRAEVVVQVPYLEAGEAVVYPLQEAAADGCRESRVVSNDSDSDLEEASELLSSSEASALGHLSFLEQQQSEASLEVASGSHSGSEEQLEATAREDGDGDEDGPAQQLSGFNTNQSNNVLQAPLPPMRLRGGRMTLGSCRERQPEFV
# UniProt Q92888: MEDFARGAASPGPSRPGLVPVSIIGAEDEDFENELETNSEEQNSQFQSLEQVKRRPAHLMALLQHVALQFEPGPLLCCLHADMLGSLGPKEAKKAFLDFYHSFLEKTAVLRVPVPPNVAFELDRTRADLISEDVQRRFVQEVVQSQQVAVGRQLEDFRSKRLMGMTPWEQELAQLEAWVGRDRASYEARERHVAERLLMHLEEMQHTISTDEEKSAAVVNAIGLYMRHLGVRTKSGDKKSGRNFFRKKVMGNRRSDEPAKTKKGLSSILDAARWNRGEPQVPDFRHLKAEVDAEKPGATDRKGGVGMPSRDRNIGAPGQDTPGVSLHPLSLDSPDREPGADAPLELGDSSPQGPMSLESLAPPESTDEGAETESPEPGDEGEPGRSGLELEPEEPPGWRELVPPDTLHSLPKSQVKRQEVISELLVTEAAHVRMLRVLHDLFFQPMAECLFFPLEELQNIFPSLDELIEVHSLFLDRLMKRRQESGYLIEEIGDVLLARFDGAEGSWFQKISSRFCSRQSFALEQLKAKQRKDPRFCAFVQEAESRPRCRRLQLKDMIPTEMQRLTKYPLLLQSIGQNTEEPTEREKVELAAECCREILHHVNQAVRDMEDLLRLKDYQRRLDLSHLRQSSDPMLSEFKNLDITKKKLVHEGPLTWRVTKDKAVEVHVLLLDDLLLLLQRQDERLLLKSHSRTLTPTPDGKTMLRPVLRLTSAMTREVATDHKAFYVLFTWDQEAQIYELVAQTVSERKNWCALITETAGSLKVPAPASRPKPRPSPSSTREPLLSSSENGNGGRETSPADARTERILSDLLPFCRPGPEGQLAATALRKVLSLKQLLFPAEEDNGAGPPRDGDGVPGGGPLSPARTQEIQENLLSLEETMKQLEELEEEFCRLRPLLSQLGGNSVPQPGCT
# UniProt P52566: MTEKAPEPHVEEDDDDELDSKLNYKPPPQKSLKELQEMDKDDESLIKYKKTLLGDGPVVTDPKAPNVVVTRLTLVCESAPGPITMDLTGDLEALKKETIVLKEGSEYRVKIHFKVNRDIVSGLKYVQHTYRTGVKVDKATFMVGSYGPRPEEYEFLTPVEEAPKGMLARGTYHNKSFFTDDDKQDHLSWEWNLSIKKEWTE
# UniProt O15085: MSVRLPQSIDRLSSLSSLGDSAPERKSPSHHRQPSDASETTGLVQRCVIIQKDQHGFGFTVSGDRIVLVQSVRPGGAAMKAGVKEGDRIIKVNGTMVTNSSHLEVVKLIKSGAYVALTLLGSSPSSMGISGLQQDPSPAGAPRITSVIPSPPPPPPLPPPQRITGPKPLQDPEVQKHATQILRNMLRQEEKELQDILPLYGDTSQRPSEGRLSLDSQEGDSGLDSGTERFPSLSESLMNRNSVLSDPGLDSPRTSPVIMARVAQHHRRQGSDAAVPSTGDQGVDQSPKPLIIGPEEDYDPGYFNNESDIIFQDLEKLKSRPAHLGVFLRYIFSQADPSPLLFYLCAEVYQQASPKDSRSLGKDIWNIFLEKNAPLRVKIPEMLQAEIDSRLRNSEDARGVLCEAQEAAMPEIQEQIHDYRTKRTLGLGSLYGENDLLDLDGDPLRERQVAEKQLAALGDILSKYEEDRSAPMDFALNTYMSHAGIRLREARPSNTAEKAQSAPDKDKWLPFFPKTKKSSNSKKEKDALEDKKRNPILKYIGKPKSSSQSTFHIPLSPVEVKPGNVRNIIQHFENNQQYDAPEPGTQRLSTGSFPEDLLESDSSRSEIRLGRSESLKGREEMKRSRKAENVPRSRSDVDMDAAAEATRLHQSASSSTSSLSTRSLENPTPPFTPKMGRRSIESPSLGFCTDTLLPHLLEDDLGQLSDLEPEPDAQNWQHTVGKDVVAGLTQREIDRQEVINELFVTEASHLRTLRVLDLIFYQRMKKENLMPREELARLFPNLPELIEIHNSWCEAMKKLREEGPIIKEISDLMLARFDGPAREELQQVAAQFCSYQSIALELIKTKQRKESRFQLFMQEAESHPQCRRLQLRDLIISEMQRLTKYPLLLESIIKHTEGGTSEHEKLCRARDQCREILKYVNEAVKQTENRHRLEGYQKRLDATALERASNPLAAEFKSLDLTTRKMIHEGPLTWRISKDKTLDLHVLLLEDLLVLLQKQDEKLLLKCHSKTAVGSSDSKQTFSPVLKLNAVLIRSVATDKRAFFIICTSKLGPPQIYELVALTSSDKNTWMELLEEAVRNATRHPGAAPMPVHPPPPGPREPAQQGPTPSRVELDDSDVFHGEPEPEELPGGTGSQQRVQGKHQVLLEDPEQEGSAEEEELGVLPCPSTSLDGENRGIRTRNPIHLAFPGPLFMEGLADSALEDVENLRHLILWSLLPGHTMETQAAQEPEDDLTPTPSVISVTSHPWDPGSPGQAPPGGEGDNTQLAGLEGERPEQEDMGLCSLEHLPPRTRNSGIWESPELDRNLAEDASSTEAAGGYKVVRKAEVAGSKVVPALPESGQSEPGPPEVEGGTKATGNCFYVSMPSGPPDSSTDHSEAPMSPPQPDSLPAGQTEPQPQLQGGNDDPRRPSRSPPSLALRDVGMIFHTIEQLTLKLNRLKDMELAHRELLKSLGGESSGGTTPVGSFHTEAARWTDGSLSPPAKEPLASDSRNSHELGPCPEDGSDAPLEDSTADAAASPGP
# UniProt P36405: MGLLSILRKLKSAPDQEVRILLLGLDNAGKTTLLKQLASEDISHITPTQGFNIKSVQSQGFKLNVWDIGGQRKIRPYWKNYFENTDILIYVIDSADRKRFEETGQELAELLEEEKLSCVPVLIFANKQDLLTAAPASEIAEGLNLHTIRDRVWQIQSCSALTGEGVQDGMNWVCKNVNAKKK
# The other results are listed elsewhere or left out.
# Compound: CC1Cc2ccccc2N1C(=O)C1CCCN(C1)C(=O)CCl (mixture of isomers) [TRIM25 ligand 11 (diastereomer mixture)]
# Assay: probe-labelled cysteine peptide fold change vs DMSO (competition) (log2 fold change); higher = less target engagement (more negative = stronger competition)
# Conditions: THP-1, incubation time: 4 h
# 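Further: competitive chemoproteomic profiling in live THP-1 cells with an iodoacetamide desthiobiotin (IA-DTB) probe, comparing probe-labelled peptide intensities in compound-treated cells against DMSO-treated controls.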
Target,probe-labelled cysteine peptide fold change (10 µM),probe-labelled cysteine peptide fold change (50 µM)
APRT_P07741_83_GFLFGPSLAQELGLGCVLIRK (UniProt P07741),-0.359,-0.22
ARHGEF2_Q92974_573_TCPSREDFPLIETEDEAYLR (UniProt Q92974),-0.0469,-0.127
ARAP3_Q8WWN8_1199_VLEQALQWCQLPEPCSASLLLK (UniProt Q8WWN8),-0.0909,-0.203
ARHGEF17_Q96PE2_1439_LELCATRPEGTDSYIFEFPHPDAR (UniProt Q96PE2),-0.0635,0.121
APRT_P07741_140_VVVVDDLLATGGTMNAACELLGR (UniProt P07741),-0.00625,-0.0677
ARHGAP4_P98171_840_QVVGAGLQTAGESGSSPEGLLASELVHRPEPCTSPEAMGPSGHR (UniProt P98171),0.00394,-0.325
ARAP1_Q96P48_803_ASEIVCLAVPPPDTHGFEHTFEVYTEGER (UniProt Q96P48),-0.0144,-0.0359
ARHGAP45_Q92619_528_SATISYYQMMHMQTAPLPVHFQMLCESSK (UniProt Q92619),-0.132,-0.236
APTX_Q7Z2E3_161_DAAQEAEAGTGLEPGSNSGQCSVPLK (UniProt Q7Z2E3),0.282,-0.342
APOBEC3G_Q9HC16_356_HCWDTFVDHQGCPFQPWDGLDEHSQDLSGR (UniProt Q9HC16),0.0156,0.121
ARHGEF2_Q92974_68_EALICPTCNVTIHNR (UniProt Q92974),0.0449,-0.0699
ARAP1_Q96P48_1357_LRPPTCWGFTVVHETEK (UniProt Q96P48),0.0858,0.063
ARHGAP45_Q92619_783_CVCEIER (UniProt Q92619),0.0269,0.181
ARNT_P27540_269_CGSSSVDPVSVNR (UniProt P27540),-0.209,-0.255
ARHGAP4_P98171_569_GEDPLVEGCTAHDLDSVAGVLK (UniProt P98171),0.262,-0.17
ARHGEF6_Q15052_57+66_FCLDPQTEADCINNINDFLK (UniProt Q15052),-0.188,0.0488
ARAF_P10398_597_TQADELPACLLSAAR (UniProt P10398),-0.183,-0.217
ARHGEF1_Q92888_537_FCAFVQEAESRPR (UniProt Q92888),0.119,0.000203
ARHGAP19_Q14CB8_359_VDSCPHQEETQHHTEEALR (UniProt Q14CB8),0.122,0.0883
ARHGAP15_Q53QZ3_140_TGHKPESVDLCGAHIEWAK (UniProt Q53QZ3),-0.0612,-0.171
ARHGDIB_P52566_76_LTLVCESAPGPITMDLTGDLEALK (UniProt P52566),-0.0301,0.105
ARHGEF11_O15085_793_LFPNLPELIEIHNSWCEAMK (UniProt O15085),0.113,-0.158
ARL3_P36405_118_LSCVPVLIFANK (UniProt P36405),-0.0334,-0.0537
ARHGAP30_Q7Z6I6_1021_TQTCTEGGDYCLIPR (UniProt Q7Z6I6),-0.0997,-0.199
ARHGEF12_Q9NZN5_784_EVLLGLKPCEIKR (UniProt Q9NZN5),-0.139,-0.114
ARHGAP30_Q7Z6I6_449_GLECPALQHRPSPASGPGPGPGLGPGPPDEK (UniProt Q7Z6I6),0.0307,-0.316
ARPC1A_Q92747_340_NTALETLHQNSITQVSIYEVDKQDCR (UniProt Q92747),-0.0748,-0.137
